Measurements published in paper PMC5013526.

By UniProt entry, the sequences of proteins in these tests, tags left out. Where a name states a change or a piece, a line headed by the entry shows the natural chain unless it says otherwise.
UniProt Q9QR71: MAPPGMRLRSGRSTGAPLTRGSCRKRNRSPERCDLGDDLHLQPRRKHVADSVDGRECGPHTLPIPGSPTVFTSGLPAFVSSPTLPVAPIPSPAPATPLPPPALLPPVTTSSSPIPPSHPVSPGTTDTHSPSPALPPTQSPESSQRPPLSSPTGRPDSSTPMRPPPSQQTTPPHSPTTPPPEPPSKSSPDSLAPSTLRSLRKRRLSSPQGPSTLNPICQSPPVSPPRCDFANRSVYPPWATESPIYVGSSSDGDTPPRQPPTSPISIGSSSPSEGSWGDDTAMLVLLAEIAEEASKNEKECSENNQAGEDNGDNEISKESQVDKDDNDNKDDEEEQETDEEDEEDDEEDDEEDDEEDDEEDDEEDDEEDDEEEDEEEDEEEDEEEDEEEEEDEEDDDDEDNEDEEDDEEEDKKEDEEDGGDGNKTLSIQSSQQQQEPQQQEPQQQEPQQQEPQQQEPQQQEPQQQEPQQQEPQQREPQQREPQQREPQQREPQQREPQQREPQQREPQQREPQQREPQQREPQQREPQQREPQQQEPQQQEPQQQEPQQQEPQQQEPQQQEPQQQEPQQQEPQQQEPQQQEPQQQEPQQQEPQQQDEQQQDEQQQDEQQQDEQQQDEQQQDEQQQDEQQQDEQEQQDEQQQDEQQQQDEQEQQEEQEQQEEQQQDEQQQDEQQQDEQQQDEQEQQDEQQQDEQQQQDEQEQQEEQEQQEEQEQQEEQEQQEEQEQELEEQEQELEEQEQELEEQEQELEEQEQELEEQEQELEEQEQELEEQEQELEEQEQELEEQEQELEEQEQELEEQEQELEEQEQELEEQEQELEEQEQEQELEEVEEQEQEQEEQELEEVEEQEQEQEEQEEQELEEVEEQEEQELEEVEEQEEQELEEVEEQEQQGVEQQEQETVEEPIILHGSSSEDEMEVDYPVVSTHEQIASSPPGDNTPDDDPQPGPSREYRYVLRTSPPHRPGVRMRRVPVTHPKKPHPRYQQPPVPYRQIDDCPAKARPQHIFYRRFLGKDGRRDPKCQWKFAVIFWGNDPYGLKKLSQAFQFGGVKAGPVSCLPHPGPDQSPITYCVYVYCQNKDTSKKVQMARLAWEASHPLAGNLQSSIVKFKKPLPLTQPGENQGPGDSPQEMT
UniProt O43707: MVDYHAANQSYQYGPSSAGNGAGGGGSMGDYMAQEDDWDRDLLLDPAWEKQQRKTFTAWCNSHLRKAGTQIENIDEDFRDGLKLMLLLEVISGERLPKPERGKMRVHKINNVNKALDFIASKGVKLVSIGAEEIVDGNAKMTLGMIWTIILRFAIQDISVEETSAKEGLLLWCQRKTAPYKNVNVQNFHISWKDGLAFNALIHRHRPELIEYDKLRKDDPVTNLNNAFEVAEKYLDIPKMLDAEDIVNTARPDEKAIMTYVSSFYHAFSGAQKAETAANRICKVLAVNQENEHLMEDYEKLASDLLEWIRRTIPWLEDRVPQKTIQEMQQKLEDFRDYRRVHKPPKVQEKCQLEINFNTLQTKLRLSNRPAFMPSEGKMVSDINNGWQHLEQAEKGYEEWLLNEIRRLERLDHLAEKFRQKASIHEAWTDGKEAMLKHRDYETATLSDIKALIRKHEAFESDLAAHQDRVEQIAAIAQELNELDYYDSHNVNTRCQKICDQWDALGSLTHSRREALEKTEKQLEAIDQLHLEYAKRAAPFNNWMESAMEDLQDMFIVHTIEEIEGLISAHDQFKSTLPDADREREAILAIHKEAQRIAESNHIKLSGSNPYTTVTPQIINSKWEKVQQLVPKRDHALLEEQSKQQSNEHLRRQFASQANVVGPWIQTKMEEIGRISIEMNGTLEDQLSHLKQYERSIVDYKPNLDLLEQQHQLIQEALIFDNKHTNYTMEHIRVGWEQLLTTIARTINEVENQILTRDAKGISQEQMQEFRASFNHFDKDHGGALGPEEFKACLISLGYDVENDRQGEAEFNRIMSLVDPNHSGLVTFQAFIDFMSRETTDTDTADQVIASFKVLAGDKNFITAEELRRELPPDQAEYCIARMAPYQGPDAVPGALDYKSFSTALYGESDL
UniProt Q9Y6D5: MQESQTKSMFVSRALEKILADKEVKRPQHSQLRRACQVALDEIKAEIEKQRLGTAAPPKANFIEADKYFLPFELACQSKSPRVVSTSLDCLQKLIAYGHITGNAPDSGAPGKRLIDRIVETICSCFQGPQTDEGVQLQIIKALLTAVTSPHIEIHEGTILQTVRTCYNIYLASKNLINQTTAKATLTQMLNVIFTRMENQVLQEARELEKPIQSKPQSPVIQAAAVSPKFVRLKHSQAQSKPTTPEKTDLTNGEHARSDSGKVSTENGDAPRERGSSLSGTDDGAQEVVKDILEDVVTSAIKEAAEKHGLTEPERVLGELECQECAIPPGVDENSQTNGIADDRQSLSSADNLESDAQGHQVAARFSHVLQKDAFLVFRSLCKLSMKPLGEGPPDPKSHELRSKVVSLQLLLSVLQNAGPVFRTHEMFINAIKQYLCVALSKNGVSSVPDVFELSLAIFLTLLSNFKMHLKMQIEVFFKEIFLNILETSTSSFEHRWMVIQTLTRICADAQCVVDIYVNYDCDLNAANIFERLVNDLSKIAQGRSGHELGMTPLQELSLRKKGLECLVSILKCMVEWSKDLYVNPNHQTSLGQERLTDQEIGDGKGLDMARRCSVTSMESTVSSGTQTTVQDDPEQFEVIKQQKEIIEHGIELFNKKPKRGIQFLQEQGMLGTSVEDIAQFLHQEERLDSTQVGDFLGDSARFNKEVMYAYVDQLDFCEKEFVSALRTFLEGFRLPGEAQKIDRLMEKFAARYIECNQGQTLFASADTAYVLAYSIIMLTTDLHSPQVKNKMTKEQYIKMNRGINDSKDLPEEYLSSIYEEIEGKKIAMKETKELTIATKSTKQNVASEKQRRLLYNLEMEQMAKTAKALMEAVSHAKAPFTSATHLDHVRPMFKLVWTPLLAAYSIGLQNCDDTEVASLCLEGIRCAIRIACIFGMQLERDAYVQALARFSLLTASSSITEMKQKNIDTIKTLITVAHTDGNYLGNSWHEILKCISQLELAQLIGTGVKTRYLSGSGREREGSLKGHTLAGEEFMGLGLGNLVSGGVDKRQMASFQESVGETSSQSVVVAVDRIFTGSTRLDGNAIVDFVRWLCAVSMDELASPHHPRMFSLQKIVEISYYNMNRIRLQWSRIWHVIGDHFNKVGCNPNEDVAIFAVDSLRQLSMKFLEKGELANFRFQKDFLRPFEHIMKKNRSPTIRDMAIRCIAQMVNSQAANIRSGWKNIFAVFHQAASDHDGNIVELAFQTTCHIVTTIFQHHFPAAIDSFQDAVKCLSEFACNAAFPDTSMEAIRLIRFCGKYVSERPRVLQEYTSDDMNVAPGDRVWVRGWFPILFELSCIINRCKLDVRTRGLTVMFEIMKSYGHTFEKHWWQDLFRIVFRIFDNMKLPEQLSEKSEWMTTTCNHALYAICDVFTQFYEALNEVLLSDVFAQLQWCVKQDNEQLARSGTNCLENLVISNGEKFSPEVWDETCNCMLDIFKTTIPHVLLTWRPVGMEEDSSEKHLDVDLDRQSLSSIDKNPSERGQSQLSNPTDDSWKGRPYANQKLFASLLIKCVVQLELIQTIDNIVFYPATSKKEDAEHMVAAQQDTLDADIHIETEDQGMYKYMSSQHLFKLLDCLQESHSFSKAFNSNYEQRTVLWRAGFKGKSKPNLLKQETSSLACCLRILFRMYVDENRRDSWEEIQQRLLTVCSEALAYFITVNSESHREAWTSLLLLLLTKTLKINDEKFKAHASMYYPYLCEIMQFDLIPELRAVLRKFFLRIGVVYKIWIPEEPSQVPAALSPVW
UniProt P47756: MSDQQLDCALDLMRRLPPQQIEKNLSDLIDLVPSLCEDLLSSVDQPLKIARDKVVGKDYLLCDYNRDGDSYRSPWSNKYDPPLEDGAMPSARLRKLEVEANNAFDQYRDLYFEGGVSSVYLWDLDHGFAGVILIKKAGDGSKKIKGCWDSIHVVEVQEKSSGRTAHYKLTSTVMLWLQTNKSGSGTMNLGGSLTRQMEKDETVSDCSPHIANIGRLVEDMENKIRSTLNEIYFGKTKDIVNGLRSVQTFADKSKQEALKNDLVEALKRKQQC
UniProt P33241: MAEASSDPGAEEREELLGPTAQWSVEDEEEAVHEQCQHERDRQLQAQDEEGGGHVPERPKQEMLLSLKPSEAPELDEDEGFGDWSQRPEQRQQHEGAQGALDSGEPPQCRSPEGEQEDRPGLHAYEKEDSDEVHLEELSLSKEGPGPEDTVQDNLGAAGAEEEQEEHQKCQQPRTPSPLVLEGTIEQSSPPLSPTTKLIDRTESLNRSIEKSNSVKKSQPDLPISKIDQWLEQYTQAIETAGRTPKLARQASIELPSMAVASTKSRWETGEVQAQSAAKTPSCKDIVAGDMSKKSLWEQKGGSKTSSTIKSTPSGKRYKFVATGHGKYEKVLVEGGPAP
UniProt P60660: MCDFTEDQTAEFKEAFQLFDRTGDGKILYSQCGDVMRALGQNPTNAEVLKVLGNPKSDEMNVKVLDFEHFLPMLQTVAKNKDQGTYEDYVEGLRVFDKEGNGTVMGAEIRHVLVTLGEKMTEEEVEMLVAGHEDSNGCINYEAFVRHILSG
UniProt P07478: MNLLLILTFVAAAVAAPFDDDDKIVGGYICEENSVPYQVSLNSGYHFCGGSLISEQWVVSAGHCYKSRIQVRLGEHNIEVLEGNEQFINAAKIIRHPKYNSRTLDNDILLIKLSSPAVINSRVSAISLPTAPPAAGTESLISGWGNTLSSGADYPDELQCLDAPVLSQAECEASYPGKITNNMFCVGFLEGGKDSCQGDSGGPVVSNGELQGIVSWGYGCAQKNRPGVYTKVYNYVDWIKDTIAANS
UniProt P08670: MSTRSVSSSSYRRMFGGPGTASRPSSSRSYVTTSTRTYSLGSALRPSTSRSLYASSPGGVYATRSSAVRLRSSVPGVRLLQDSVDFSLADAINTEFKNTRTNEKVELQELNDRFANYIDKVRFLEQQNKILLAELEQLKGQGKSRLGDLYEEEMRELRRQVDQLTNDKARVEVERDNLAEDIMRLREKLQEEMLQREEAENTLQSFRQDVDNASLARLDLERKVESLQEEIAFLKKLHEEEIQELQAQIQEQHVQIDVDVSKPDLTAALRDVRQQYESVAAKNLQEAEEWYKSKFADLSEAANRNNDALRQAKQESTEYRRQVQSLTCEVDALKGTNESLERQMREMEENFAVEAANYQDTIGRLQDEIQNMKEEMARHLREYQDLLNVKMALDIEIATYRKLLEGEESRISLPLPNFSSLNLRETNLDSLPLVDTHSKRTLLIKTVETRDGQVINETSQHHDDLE

What follows are molecules tested against Latency-associated nuclear antigen (LANA), endogenous in KSHV-positive cells (KSHV (human herpesvirus 8)) (UniProt Q9QR71) (assay: affinity purification with mass spectrometry; BCBL-1 RIPA lysate; immunoprecipitation with anti-LANA against control IgG; Cy3/Cy5 labelling, 2D-DIGE; unique spots identified by MALDI-TOF MS and MS/MS).

Molecule	binding
Alpha-actinin-4 (from UniProt O43707 1-911)	binds
Brefeldin A-inhibited guanine nucleotide-exchange protein 2 (from UniProt Q9Y6D5 1-1785)	binds
Capping protein (actin filament) muscle Z-line, beta (from UniProt P47756 1-272)	binds
Lymphocyte-specific protein 1 isoform 1 (from UniProt P33241 1-339)	binds
MYL6 protein (from UniProt P60660 1-151)	binds
Protease serine 2 preproprotein (from UniProt P07478)	binds
ZFYVE26 protein (from UniProt Q68DK2 1-2539)	binds
nonerythroid alpha-spectrin (from UniProt Q13813 1-2472)	binds
vimentin (from UniProt P08670 1-466)	binds
ZNF483 protein (protein, UniProt Q8TF39 1-744) MQAVVPLNKMTAISPEPQTLASTEQNEVPRVVTSGEQEAILRGNAADAESFRQRFRWFCYSEVAGPRKALSQLWELCNQWLRPDIHTKEQILELLVFEQFLTILPGEIRIWVKSQHPESSEEVVTLIEDLTQMLEEKDPVSQDSTVSQEENSKEDKMVTVCPNTESCESITLKDVAVNFSRGEWKKLEPFQKELYKEVLLENLRNLEFLDFPVSKLELISQLKWVELPWLLEEVSKSSRLDESALDKIIERCLRDDDHGLMEESQQYCGSSEEDHGNQGNSKGRVAQNKTLGSGSRGKKFDPDKSPFGHNFKETSDLIKHLRVYLRKKSRRYNESKKPFSFHSDLVLNRKEKTAGEKSRKSNDGGKVLSHSSALTEHQKRQKIHLGDRSQKCSKCGIIFIRRSTLSRRKTPMCEKCRKDSCQEAALNKDEGNESGEKTHKCSKCGKAFGYSASLTKHRRIHTGEKPYMCNECGKAFSDSSSLTPHHRTHSGEKPFKCDDCGKGFTLSAHLIKHQRIHTGEKPYKCKDCGRPFSDSSSLIQHQRIHTGEKPYTCSNCGKSFSHSSSLSKHQRIHTGEKPYKCGECGKAFRQNSCLTRHQRIHTGEKPYLCNDCGMTFSHFTSVIYHQRLHSGEKPYKCNQCEKAFPTHSLLSRHQRIHTGVKPYKCKECGKSFSQSSSLNEHHRIHTGEKPYECNYCGATFSRSSILVEHLKIHTGRREYECNECEKTFKSNSGLIRHRGFHSAE	binds
Regulatory factor X-associated protein (protein, UniProt O00287 1-272) MEAQGVAEGAGPGAASGVPHPAALAPAAAPTLAPASVAAAASQFTLLVMQPCAGQDEAAAPGGSVGAGKPVRYLCEGAGDGEEEAGEDEADLLDTSDPPGGGESAASLEDLEDEETHSGGEGSSGGARRRGSGGGSMSKTCTYEGCSETTSQVAKQRKPWMCKKHRNKMYKDKYKKKKSDQALNCGGTASTGSAGNVKLEESADNILSIVKQRTGSFGDRPARPTLLEQVLNQKRLSLLRSPEVVQFLQKQQQLLNQQVLEQRQQQFPGTSM	binds
EF-hand domain-containing protein D2 (protein, UniProt Q96C19 1-240) MATDELATKLSRRLQMEGEGGGETPEQPGLNGAAAAAAGAPDEAAEALGSADCELSAKLLRRADLNQGIGEPQSPSRRVFNPYTEFKEFSRKQIKDMEKMFKQYDAGRDGFIDLMELKLMMEKLGAPQTHLGLKNMIKEVDEDFDSKLSFREFLLIFRKAAAGELQEDSGLCVLARLSEIDVSSEGVKGAKSFFEAKVQAINVSSRFEEEIKAEQEERKKQAEEMKQRKAAFKELQSTFK	binds
Regulator of microtubule dynamics protein 2 (protein, UniProt Q96LZ7 1-410) MPYSTNKELILGIMVGTAGISLLLLWYHKVRKPGIAMKLPEFLSLGNTFNSITLQDEIHDDQGTTVIFQERQLQILEKLNELLTNMEELKEEIRFLKEAIPKLEEYIQDELGGKITVHKISPQHRARKRRLPTIQSSATSNSSEEAESEGGYITANTDTEEQSFPVPKAFNTRVEELNLDVLLQKVDHLRMSESGKSESFELLRDHKEKFRDEIEFMWRFARAYGDMYELSTNTQEKKHYANIGKTLSERAINRAPMNGHCHLWYAVLCGYVSEFEGLQNKINYGHLFKEHLDIAIKLLPEEPFLYYLKGRYCYTVSKLSWIEKKMAATLFGKIPSSTVQEALHNFLKAEELCPGYSNPNYMYLAKCYTDLEENQNALKFCNLALLLPTVTKEDKEAQKEMQKIMTSLKR	binds
Serine/threonine-protein phosphatase 4 regulatory subunit 4 isoform 1 (protein, UniProt Q6NUP7 1-873) MHPPPPAAAMDFSQNSLFGYMEDLQELTIIERPVRRSLKTPEEIERLTVDEDLSDIERAVYLLSAGQDVQGTSVIANLPFLMRQNPTETLRRVLPKVREALHVAGVEMQLTAAMSFLTILQDESVSIHAYTHSFLQVILLHLEHRDTGVSNAWLETLLSVIEVLPKETLRHEILNPLVSKAQLSQTVQSRLVSCKILGKLTNKFDAHTIKREILPLVKSLCQDVEYEVRSCMCRQLENIAQGIGTELTKSVVLPELIELSRDEGSSVRLAAFETLVNLLDIFDTDDRSQTILPLVKSFCEKSFKADESILISLSFHLGKLCHGLYGIFTPDQHLRFLEFYKKLCTLGLQQENGHNENQIPPQILEQEKKYISVRKNCAYNFPAMIVFVDPKNFHMELYSTFFCLCHDPEVPVRYTIAICFYEVSKLLNSGVYLIHKELITLLQDESLEVLDALIDHLPEILELMSTGGESSVQENKLSSLPDLIPALTAAEQRAAASLKWRTHEKLLQKYACLPHVISSDQIYYRFLQRMFTIMMTNNVLPVQKAASRTLCIFLRYNRKQEQRHEVIQKLIEQLGQGKSYWNRLRFLDTCEFIIEIFSKSFFCKYFFLPAIELTHDPVANVRMKLCYLLPKVKSTLKIPADKHLLQQLEMCVRKLLCQEKDKDVLAIVKRTVLELDRMEMSMDAFQKKFYEKDLLDQEKEREELLLLEMEQLEKEKQQNDGRPMSDKMFEKKRRDTKTPTQSLPKNIPISVPGPSSVTPSTSKEIKKSKLIRSQSFNNQAFHAKYGNLEKCASKSSTTGYTTSVSGLGKTSVLSLADDSFRTRNASSVPSSFSPNTPLPSTSRGTGNSVDPKSSGSKDTQPRKATLKSRKSNP	binds

Results are given in words; binding and its absence hold for the method and conditions named. Binding seen in cells or lysates may run through a third protein. A yes stands for co-enrichment or nearness to the bait. Other partners may have been found.
